{"source": "patent US20260365633A1", "about": "“Novel PEM Structures for SBX” (Roche Sequencing Solutions, Inc., priority 2023, published 2026)", "test_system": "nucleic acid polymerase", "test": "PEM activity summary: primer extension on 45mer, 100mer, 150mer, 222mer DNA templates, gel (Table 2)", "type": "biochemical", "conditions": "preliminary functional characterization", "procedure": "In some instances, the PEM compounds of the present disclosure were tested in primer extension reactions using DNA templates of the following lengths: A) 45mer; B) 100mer; C) 150mer; and D) 222mer.", "note": "Some results were stated once for a whole list of compounds, not compound by compound."}
{"smiles": "CCNC(=O)c1cc(-c2cn(-c3ccc(C(=O)O)c(F)c3)nn2)nc(-c2cn(-c3ccc(C(=O)O)c(F)c3)nn2)c1", "note": "[Compound 76, 4,4′-((4-(ethylcarbamoyl)pyridine-2,6-diyl)bis(1H-1,2,3-triazole-4,1-diyl))bis(2-fluorobenzoic acid)]", "values": [{"measurement": "Functional Category: PEM effect", "value": "PEM effect"}]}
{"smiles": "O=C(O)c1ccc(-n2cc(-c3cccc(-c4cn(-c5ccc(C(=O)O)cc5)nn4)c3)nn2)cc1", "note": "[Compound 23, 4,4′-(1,3-phenylenebis(1H-1,2,3-triazole-4,1-diyl))dibenzoic acid]", "values": [{"measurement": "Functional Category: PEM effect", "value": "PEM effect"}]}
{"smiles": "CC(=O)n1c2ccc(-c3cn(-c4ccc(C(=O)O)c(O)c4)nn3)cc2c2cc(-c3cn(-c4ccc(C(=O)O)c(O)c4)nn3)ccc21", "note": "[Compound 33, 4,4′-((9-acetyl-9H-carbazole-3,6-diyl)bis(1H-1,2,3-triazole-4,1-diyl))bis(2-hydroxybenzoic acid)]", "values": [{"measurement": "Functional Category: PEM effect", "value": "PEM effect"}]}
{"smiles": "O=C(O)c1ccc(-n2cc(-c3cccc(-c4cn(-c5ccc(C(=O)O)c(O)c5)nn4)n3)nn2)cc1O", "note": "[Compound 1, 4,4′-(pyridine-2,6-diylbis(1H-1,2,3-triazole-4,1-diyl))bis(2-hydroxybenzoic acid)]", "values": [{"measurement": "Functional Category: PEM effect", "value": "PEM effect"}]}
{"smiles": "CCNC(=O)c1cc(-c2cn(-c3cccc4[nH]cnc34)nn2)nc(-c2cn(-c3cccc4nc[nH]c34)nn2)c1", "note": "[Compound 78, 2-(1-(1H-benzo[d]imidazol-4-yl)-1H-1,2,3-triazol-4-yl)-6-(1-(1H-benzo[d]imidazol-7-yl)-1H-1,2,3-triazol-4-yl)-N-ethylisonicotinamide]", "values": [{"measurement": "Functional Category: PEM effect", "value": "PEM effect"}]}
{"smiles": "CCNC(=O)c1cc(-c2cn(-c3ccc(C(=O)O)c(C)c3)nn2)nc(-c2cn(-c3ccc(C(=O)O)c(C)c3)nn2)c1", "note": "[Compound 102, 4,4′-((4-(ethylcarbamoyl)pyridine-2,6-diyl)bis(1H-1,2,3-triazole-4,1-diyl))bis(2-methylbenzoic acid)]", "values": [{"measurement": "Functional Category: PEM effect", "value": "PEM effect"}]}
{"smiles": "CCOC(=O)c1cc(-c2cn(-c3ccc(C(=O)O)c(O)c3)nn2)nc(-c2cn(-c3ccc(C(=O)O)c(O)c3)nn2)c1", "note": "[Compound 14, 4,4′-((4-(ethoxycarbonyl)pyridine-2,6-diyl)bis(1H-1,2,3-triazole-4,1-diyl))bis(2-hydroxybenzoic acid)]", "values": [{"measurement": "Functional Category: PEM effect", "value": "PEM effect"}]}
{"smiles": "CCNC(=O)c1cc(-c2cn(-c3ccc(C(=O)O)c(O)c3)nn2)nc(-c2cn(-c3ccc(C(=O)O)c(O)c3)nn2)c1", "note": "[Compound 17, 4,4′-((4-(ethylcarbamoyl)pyridine-2,6-diyl)bis(1H-1,2,3-triazole-4,1-diyl))bis(2-hydroxybenzoic acid)]", "values": [{"measurement": "Functional Category: PEM effect", "value": "PEM effect"}]}
{"smiles": "CN(C)C(=O)c1cc(-c2cn(-c3ccc(C(=O)O)c(O)c3)nn2)nc(-c2cn(-c3ccc(C(=O)O)c(O)c3)nn2)c1", "note": "[Compound 45, 4,4′-((4-(dimethylcarbamoyl)pyridine-2,6-diyl)bis(1H-1,2,3-triazole-4,1-diyl))bis(2-hydroxybenzoic acid)]", "values": [{"measurement": "Functional Category: PEM effect", "value": "PEM effect"}]}
{"smiles": "CC(C)(C)OC(=O)c1cc(-c2cn(-c3ccc(C(=O)O)c(O)c3)nn2)nc(-c2cn(-c3ccc(C(=O)O)c(O)c3)nn2)c1", "note": "[Compound 42, 4,4′-((4-(tert-butoxycarbonyl)pyridine-2,6-diyl)bis(1H-1,2,3-triazole-4,1-diyl))bis(2-hydroxybenzoic acid)]", "values": [{"measurement": "Functional Category: PEM effect", "value": "PEM effect"}]}
{"smiles": "CCNC(=O)c1cc(-c2cn(-c3ccc(C(=O)O)c(OC)c3)nn2)nc(-c2cn(-c3ccc(C(=O)O)c(OC)c3)nn2)c1", "note": "[Compound 98, 4,4′-((4-(ethylcarbamoyl)pyridine-2,6-diyl)bis(1H-1,2,3-triazole-4,1-diyl))bis(2-methoxybenzoic acid)]", "values": [{"measurement": "Functional Category: PEM effect", "value": "PEM effect"}]}
{"smiles": "O=C(O)c1ccc(-n2cc(-c3cc(C(F)(F)F)cc(-c4cn(-c5ccc(C(=O)O)c(O)c5)nn4)n3)nn2)cc1O", "note": "[Compound 38, 4,4′-((4-(trifluoromethyl)pyridine-2,6-diyl)bis(1H-1,2,3-triazole-4,1-diyl))bis(2-hydroxybenzoic acid)]", "values": [{"measurement": "Functional Category: PEM effect", "value": "PEM effect"}]}
{"smiles": "NC(=O)c1cc(-c2cn(-c3ccc(C(=O)O)c(C(F)(F)F)c3)nn2)nc(-c2cn(-c3ccc(C(=O)O)c(C(F)(F)F)c3)nn2)c1", "note": "[Compound 82, 4,4′-((4-carbamoylpyridine-2,6-diyl)bis(1H-1,2,3-triazole-4,1-diyl))bis(2-(trifluoromethyl)benzoic acid)]", "values": [{"measurement": "Functional Category: PEM effect", "value": "PEM effect"}]}
{"smiles": "CCNC(=O)c1cc(-c2cn(-c3cc(O)cc(C(=O)O)c3)nn2)nc(-c2cn(-c3cc(O)cc(C(=O)O)c3)nn2)c1", "note": "[Compound 213, 3-(4-{6-[1-(3-Carboxy-5-hydroxyphenyl)-1H-1,2,3-triazol-4-yl]-4-(N-ethylcarbamoyl)-2-pyridyl}-1H-1,2,3-triazol-1-yl)-5-hydroxybenzoic acid]", "values": [{"measurement": "Functional Category: PEM effect", "value": "PEM effect"}]}
{"smiles": "O=C(O)c1ccc(-n2cc(-c3cc4ccccc4cc3-c3cn(-c4ccc(C(=O)O)c(O)c4)nn3)nn2)cc1O", "note": "[Compound 64, 4,4′-(naphthalene-2,3-diylbis(1H-1,2,3-triazole-4,1-diyl))bis(2-hydroxybenzoic acid)]", "values": [{"measurement": "Functional Category: PEM effect", "value": "PEM effect"}]}
{"smiles": "O=C(NCCCCNC(=O)c1cc(-c2cn(-c3ccc(C(=O)O)c(C(F)(F)F)c3)nn2)nc(-c2cn(-c3ccc(C(=O)O)c(C(F)(F)F)c3)nn2)c1)c1cc(-c2cn(-c3ccc(C(=O)O)c(C(F)(F)F)c3)nn2)nc(-c2cn(-c3ccc(C(=O)O)c(C(F)(F)F)c3)nn2)c1", "note": "[Compound 108, 4,4′,4″,4′″-((((butane-1,4-diylbis(azanediyl))bis(carbonyl))bis(pyridine-4,2,6-triyl))tetrakis(1H-1,2,3-triazole-4,1-diyl))tetrakis(2-(trifluoromethyl)benzoic acid)]", "values": [{"measurement": "Functional Category: PEM effect", "value": "PEM effect"}]}
{"smiles": "O=C(O)c1ccc(-n2cc(-c3cccc(-c4cn(-c5ccc(C(=O)O)cc5)nn4)n3)nn2)cc1", "note": "[Compound 26, 4,4′-(pyridine-2,6-diylbis(1H-1,2,3-triazole-4,1-diyl))dibenzoic acid]", "values": [{"measurement": "Functional Category: PEM effect", "value": "PEM effect"}]}
{"smiles": "CCNC(=O)c1cc(-c2cn(-c3ccc(CCC(=O)O)cc3)nn2)nc(-c2cn(-c3ccc(CCC(=O)O)cc3)nn2)c1", "note": "[Compound 95, 3,3′-(((4-(ethylcarbamoyl)pyridine-2,6-diyl)bis(1H-1,2,3-triazole-4,1-diyl))bis(4,1-phenylene))dipropionic acid]", "values": [{"measurement": "Functional Category: PEM effect", "value": "PEM effect"}]}
{"smiles": "CCNC(=O)c1cc(-c2cn(-c3cc(C(=O)O)cc(C(=O)O)c3)nn2)nc(-c2cn(-c3cc(C(=O)O)cc(C(=O)O)c3)nn2)c1", "note": "[Compound 99, 5,5′-((4-(ethylcarbamoyl)pyridine-2,6-diyl)bis(1H-1,2,3-triazole-4,1-diyl))diisophthalic acid]", "values": [{"measurement": "Functional Category: PEM effect", "value": "PEM effect"}]}
{"smiles": "COc1ccc(-n2cc(-c3ccc4[nH]c5ccc(-c6cn(-c7ccc(OC)cc7)nn6)cc5c4c3)nn2)cc1", "note": "[Compound 7, 3,6-bis(1-(4-methoxyphenyl)-1H-1,2,3-triazol-4-yl)-9H-carbazole]", "values": [{"measurement": "Functional Category: PEM effect", "value": "PEM effect"}]}
{"smiles": "CCOC(=O)c1cc(-c2cn(-c3ccc(O)c(C(=O)O)c3)nn2)nc(-c2cn(-c3ccc(O)c(C(=O)O)c3)nn2)c1", "note": "[Compound 191, 5-(4-{6-[1-(3-Carboxy-4-hydroxyphenyl)-1H-1,2,3-triazol-4-yl]-4-ethoxycarbonyl-2-pyridyl}-1H-1,2,3-triazol-1-yl)-2-hydroxybenzoic acid]", "values": [{"measurement": "Functional Category: PEM effect", "value": "PEM effect"}]}
{"smiles": "CCNC(=O)c1cc(-n2cc(-c3ccc(C(=O)O)c(C(F)(F)F)c3)nn2)cc(-n2cc(-c3ccc(C(=O)O)c(C(F)(F)F)c3)nn2)c1", "note": "[Compound 116, 4,4′-((5-(ethylcarbamoyl)-1,3-phenylene)bis(1H-1,2,3-triazole-1,4-diyl))bis(2-(trifluoromethyl)benzoic acid)]", "values": [{"measurement": "Functional Category: PEM effect", "value": "PEM effect"}]}
{"smiles": "COC(=O)c1cc(-c2cn(-c3ccc(C(=O)O)c(O)c3)nn2)nc(-c2cn(-c3ccc(C(=O)O)c(O)c3)nn2)c1", "note": "[Compound 16, 4,4′-((4-(methoxycarbonyl)pyridine-2,6-diyl)bis(1H-1,2,3-triazole-4,1-diyl))bis(2-hydroxybenzoic acid)]", "values": [{"measurement": "Functional Category: PEM effect", "value": "PEM effect"}]}
{"smiles": "CC(=O)NCCNC(=O)c1cc(-c2cn(-c3ccc(C(=O)O)c(C(F)(F)F)c3)nn2)nc(-c2cn(-c3ccc(C(=O)O)c(C(F)(F)F)c3)nn2)c1", "note": "[Compound 234, 4-[4-(6-{1-[4-Carboxy-3-(trifluoromethyl)phenyl]-1H-1,2,3-triazol-4-yl}-4-(N-2-acetylaminoethylcarbamoyl)-2-pyridyl)-1H-1,2,3-triazol-1-yl]-2-(trifluoromethyl)benzoic acid]", "values": [{"measurement": "Functional Category: PEM effect", "value": "PEM effect"}]}
{"smiles": "O=C(O)c1cc(-n2cc(-c3cc(C(=O)N4CCOCC4)cc(-c4cn(-c5ccc(C(F)(F)F)c(C(=O)O)c5)nn4)n3)nn2)ccc1C(F)(F)F", "note": "[Compound 91, 5,5′-((4-(morpholine-4-carbonyl)pyridine-2,6-diyl)bis(1H-1,2,3-triazole-4,1-diyl))bis(2-(trifluoromethyl)benzoic acid)]", "values": [{"measurement": "Functional Category: PEM effect", "value": "PEM effect"}]}
{"smiles": "O=C(O)c1cc(-c2cn(-c3ccc(C(=O)O)c(C(F)(F)F)c3)nn2)nc(-c2cn(-c3ccc(C(=O)O)c(C(F)(F)F)c3)nn2)c1", "note": "[Compound 94, 4,4′-((4-carboxypyridine-2,6-diyl)bis(1H-1,2,3-triazole-4,1-diyl))bis(2-(trifluoromethyl)benzoic acid)]", "values": [{"measurement": "Functional Category: PEM effect", "value": "PEM effect"}]}
{"smiles": "O=C(NC1CCCC1)c1cc(-c2cn(-c3ccc(C(=O)O)c(O)c3)nn2)nc(-c2cn(-c3ccc(C(=O)O)c(O)c3)nn2)c1", "note": "[Compound 60, 4,4′-((4-(cyclopentylcarbamoyl)pyridine-2,6-diyl)bis(1H-1,2,3-triazole-4,1-diyl))bis(2-hydroxybenzoic acid)]", "values": [{"measurement": "Functional Category: PEM effect", "value": "PEM effect"}]}
{"smiles": "O=C(O)c1ccc(-n2cc(-c3ccc4ccc(-c5cn(-c6ccc(C(=O)O)c(O)c6)nn5)cc4c3)nn2)cc1O", "note": "[Compound 63, 4,4′-(naphthalene-2,7-diylbis(1H-1,2,3-triazole-4,1-diyl))bis(2-hydroxybenzoic acid)]", "values": [{"measurement": "Functional Category: PEM effect", "value": "PEM effect"}]}
